# Measurements published in patent US8933235B2, “Pyridinedione carboxamide inhibitors of endothelial lipase” (Bristol-Myers Squibb Company, priority 2011, dated 2015).
# Some results were stated once for a whole list of compounds, not compound by compound.
# Molecular target: T1, endothelial lipase (EL) (Homo sapiens, UniProt Q9Y5X9)
# T1 construct: Conditioned media obtained from HT-1080 cells, which were transformed by RAGE technology (Athersys) to overexpress endogenous EL; endogenous in cells; conditioned medium used as the enzyme source
# T1 sequence (Q9Y5X9 21-500): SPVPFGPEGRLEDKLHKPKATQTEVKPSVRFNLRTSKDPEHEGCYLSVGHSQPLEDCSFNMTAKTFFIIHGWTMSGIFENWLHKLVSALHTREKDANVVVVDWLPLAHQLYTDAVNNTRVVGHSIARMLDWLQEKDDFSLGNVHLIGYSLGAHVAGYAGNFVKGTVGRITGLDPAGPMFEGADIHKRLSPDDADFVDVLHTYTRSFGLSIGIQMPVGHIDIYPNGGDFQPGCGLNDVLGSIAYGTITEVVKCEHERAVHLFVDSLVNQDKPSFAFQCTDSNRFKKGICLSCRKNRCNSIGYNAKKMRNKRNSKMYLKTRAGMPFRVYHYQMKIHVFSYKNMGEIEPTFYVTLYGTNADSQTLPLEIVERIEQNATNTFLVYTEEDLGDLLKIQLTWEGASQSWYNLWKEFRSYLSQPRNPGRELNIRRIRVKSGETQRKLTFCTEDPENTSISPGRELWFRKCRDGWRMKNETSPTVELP
# Assay: Endothelial lipase (EL) enzymatic assay with fluorescent substrate A10070 in DMPG vesicles
# Type: biochemical
# Conditions: result in words
row,SMILES,EL inhibitory activity
1,"Cn1ccc(C(=O)NCCCc2ccc(Cl)cc2Cl)c(O)c1=O [Example 169, N-(3-(2,4-dichlorophenyl)propyl)-3-hydroxy-1-methyl-2-oxo-1,2-dihydropyridine-4-carboxamide]",found having EL inhibitory activity
2,"Cc1cccc(OCCCNC(=O)c2cc(C(F)(F)F)n(C)c(=O)c2O)c1 [Example 92, 3-hydroxy-1-methyl-2-oxo-N-(3-(m-tolyloxy)propyl)-6-(trifluoromethyl)-1,2-dihydropyridine-4-carboxamide]",found having EL inhibitory activity
3,"Cn1c(C(F)(F)F)cc(C(=O)NCCCOc2ccc(F)cc2)c(O)c1=O [Example 99, N-(3-(4-fluorophenoxy)propyl)-3-hydroxy-1-methyl-2-oxo-6-(trifluoromethyl)-1,2-dihydropyridine-4-carboxamide]",found having EL inhibitory activity
4,"CC(C)n1ccc(C(=O)NCCCc2ccc(Cl)c(Cl)c2)c(O)c1=O [Example 152, N-(3-(3,4-dichlorophenyl)propyl)-3-hydroxy-1-isopropyl-2-oxo-1,2-dihydropyridine-4-carboxamide]",found having EL inhibitory activity
5,"CC(C)Cn1ccc(C(=O)NCCCOc2ccccc2C(F)(F)F)c(O)c1=O [Example 162, 3-hydroxy-1-isobutyl-2-oxo-N-(3-(2-(trifluoromethyl)phenoxy)propyl)-1,2-dihydropyridine-4-carboxamide]",found having EL inhibitory activity
6,"Cn1c(-c2ccc(C(F)(F)F)c(Cl)c2)cc(C(=O)NCCCc2ccc(Cl)c(Cl)c2)c(O)c1=O [Example 9, 6-(3-chloro-4-(trifluoromethyl)phenyl)-N-(3-(3,4-dichlorophenyl)propyl)-3-hydroxy-1-methyl-2-oxo-1,2-dihydropyridine-4-carboxamide]",found having EL inhibitory activity
7,"Cn1ccc(C(=O)NCCCCc2ccccc2)c(O)c1=O [Example 195, 3-hydroxy-1-methyl-2-oxo-N-(4-phenylbutyl)-1,2-dihydropyridine-4-carboxamide]",found having EL inhibitory activity
8,"Cn1c(-c2cc(F)cc(C(F)(F)F)c2)cc(C(=O)NCCCOc2ccccc2C(F)(F)F)c(O)c1=O [Example 76, 6-(3-fluoro-5-(trifluoromethyl)phenyl)-3-hydroxy-1-methyl-2-oxo-N-(3-(2-(trifluoromethyl)phenoxy)propyl)-1,2-dihydropyridine-4-carboxamide]",found having EL inhibitory activity
9,"C[C@@H](NC(=O)c1ccn(C)c(=O)c1O)c1ccc2ccccc2c1 [Example 206, (R)-3-hydroxy-1-methyl-N-(1-(naphthalen-2-yl)ethyl)-2-oxo-1,2-dihydropyridine-4-carboxamide]",found having EL inhibitory activity
10,"Cn1c(-c2cc(F)cc(C(F)(F)F)c2)cc(C(=O)NCc2cccc(OC(F)(F)F)c2)c(O)c1=O [Example 66, 6-(3-fluoro-5-(trifluoromethyl)phenyl)-3-hydroxy-1-methyl-2-oxo-N-(3-(trifluoromethoxy)benzyl)-1,2-dihydropyridine-4-carboxamide]",found having EL inhibitory activity
11,"Cc1c(-c2cc(F)cc(C(F)(F)F)c2)c(C(=O)NCCCc2ccc(Cl)c(Cl)c2)c(O)c(=O)n1C [Example 109, N-(3-(3,4-dichlorophenyl)propyl)-5-(3-fluoro-5-(trifluoromethyl)phenyl)-3-hydroxy-1,6-dimethyl-2-oxo-1,2-dihydropyridine-4-carboxamide]",found having EL inhibitory activity
12,"Cn1c(-c2cccc(N)c2)cc(C(=O)NCCCc2ccc(Cl)c(Cl)c2)c(O)c1=O [Example 32, 6-(3-aminophenyl)-N-(3-(3,4-dichlorophenyl)propyl)-3-hydroxy-1-methyl-2-oxo-1,2-dihydropyridine-4-carboxamide]",found having EL inhibitory activity
